# From the supplement of paper PMC7666118
# Chains of the proteins cited; added tags and fusions are not shown. Lines headed by an entry give the natural chain unless they say otherwise; changes in a name come on top.
# UniProt Q6UWJ1: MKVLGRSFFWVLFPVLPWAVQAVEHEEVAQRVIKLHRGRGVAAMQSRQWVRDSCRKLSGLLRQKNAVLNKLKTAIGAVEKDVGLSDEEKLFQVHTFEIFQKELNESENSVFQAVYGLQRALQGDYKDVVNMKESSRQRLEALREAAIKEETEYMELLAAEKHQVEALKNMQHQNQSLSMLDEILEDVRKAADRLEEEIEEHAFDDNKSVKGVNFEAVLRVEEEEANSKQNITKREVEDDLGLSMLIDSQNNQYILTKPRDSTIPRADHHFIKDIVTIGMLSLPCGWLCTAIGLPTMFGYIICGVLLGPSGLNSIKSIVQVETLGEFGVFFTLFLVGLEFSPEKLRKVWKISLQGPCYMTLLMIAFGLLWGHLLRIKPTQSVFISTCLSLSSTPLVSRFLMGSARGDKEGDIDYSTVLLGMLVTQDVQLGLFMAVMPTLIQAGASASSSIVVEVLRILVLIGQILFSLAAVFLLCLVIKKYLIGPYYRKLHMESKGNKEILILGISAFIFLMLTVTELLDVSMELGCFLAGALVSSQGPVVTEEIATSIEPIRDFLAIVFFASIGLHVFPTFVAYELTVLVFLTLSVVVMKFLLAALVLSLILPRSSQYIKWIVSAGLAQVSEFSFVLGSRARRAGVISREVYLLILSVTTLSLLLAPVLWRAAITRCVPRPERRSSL
# UniProt P55327: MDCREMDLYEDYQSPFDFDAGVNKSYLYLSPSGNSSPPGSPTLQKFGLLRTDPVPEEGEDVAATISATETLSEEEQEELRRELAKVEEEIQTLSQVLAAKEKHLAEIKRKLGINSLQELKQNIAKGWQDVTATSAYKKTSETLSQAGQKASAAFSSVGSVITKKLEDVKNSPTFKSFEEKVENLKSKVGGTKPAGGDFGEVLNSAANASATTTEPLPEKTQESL
# UniProt Q15025: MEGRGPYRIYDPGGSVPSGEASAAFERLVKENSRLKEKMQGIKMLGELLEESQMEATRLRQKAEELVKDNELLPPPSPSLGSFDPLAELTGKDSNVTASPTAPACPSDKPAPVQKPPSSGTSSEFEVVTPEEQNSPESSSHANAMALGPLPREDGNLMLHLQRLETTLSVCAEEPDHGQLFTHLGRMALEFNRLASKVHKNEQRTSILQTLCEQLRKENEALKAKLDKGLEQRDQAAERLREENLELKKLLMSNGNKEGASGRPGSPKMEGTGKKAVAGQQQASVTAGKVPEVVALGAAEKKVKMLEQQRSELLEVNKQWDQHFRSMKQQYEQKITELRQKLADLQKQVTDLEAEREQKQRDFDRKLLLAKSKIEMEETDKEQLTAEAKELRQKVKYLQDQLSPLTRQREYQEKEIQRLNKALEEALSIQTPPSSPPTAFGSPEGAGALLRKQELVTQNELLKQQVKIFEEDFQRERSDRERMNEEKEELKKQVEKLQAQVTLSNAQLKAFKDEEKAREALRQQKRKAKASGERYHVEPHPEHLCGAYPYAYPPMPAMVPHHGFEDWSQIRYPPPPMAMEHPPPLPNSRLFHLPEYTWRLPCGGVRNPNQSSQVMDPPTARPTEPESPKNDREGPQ
# UniProt Q9NVA4: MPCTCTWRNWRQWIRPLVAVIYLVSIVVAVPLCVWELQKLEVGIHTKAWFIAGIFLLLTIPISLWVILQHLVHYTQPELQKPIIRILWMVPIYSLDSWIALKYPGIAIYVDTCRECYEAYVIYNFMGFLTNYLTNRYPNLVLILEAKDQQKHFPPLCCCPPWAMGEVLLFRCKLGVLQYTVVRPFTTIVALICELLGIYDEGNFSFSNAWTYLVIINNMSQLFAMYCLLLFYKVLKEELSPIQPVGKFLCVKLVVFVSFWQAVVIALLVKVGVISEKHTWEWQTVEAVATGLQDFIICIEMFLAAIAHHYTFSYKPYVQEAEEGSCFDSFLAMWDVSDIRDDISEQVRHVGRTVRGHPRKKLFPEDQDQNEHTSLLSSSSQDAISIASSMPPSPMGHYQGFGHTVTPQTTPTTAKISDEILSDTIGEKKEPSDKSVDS
# UniProt Q96MH6: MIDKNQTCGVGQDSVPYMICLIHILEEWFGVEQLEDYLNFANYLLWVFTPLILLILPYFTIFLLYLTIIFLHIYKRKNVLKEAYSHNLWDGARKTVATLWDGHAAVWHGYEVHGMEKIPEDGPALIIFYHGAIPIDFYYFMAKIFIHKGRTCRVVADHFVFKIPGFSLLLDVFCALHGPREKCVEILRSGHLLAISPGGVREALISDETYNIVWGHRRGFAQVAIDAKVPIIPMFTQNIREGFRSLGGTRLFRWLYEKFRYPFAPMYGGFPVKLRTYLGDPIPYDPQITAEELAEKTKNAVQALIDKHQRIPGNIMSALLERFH
# UniProt Q0P6H9: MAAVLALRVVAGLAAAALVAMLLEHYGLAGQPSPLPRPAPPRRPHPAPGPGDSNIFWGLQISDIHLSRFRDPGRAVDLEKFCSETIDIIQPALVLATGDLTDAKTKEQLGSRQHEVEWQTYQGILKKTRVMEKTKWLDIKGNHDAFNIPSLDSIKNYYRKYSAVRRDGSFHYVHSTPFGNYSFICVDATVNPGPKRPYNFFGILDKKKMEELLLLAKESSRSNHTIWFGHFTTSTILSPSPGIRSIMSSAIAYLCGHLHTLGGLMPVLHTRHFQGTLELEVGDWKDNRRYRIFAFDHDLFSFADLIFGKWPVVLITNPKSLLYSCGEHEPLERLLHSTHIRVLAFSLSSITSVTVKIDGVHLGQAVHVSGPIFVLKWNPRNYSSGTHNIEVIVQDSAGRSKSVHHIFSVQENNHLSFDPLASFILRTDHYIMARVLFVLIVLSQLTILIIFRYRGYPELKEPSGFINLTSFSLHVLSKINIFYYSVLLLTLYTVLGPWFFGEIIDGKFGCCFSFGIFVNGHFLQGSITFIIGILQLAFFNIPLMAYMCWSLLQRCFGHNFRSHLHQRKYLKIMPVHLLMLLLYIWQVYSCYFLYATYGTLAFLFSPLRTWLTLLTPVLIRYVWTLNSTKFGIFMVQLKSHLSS
# UniProt Q6P1N9: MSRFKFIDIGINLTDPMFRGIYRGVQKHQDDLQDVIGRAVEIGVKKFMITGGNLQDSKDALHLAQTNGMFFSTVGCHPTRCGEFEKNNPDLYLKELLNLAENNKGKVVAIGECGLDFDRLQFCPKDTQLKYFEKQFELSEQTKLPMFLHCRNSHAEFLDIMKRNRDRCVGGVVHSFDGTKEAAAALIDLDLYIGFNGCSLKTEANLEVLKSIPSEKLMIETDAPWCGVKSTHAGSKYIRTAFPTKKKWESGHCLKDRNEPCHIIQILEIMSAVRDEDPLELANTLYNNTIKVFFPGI
# UniProt Q86VP1, whole entry: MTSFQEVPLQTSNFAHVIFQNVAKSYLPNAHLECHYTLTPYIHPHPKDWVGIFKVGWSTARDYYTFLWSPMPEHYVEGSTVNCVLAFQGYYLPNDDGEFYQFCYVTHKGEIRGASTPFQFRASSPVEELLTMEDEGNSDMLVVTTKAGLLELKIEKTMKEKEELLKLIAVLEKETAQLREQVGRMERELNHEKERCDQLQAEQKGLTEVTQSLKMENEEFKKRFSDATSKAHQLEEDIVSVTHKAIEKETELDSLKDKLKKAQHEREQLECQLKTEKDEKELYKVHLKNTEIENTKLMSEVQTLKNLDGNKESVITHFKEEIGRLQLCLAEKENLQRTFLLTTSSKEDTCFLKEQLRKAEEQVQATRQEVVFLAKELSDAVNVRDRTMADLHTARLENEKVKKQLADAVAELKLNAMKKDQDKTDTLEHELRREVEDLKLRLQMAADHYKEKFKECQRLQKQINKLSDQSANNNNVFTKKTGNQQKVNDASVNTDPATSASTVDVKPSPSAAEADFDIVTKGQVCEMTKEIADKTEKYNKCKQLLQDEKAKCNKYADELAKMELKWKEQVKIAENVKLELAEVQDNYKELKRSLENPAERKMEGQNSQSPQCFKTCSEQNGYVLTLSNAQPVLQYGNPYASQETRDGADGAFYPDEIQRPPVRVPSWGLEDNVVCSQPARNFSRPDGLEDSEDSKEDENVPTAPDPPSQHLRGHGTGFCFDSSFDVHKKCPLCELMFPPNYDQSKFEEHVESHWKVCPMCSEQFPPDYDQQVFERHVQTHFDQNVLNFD
# UniProt P12270, whole entry: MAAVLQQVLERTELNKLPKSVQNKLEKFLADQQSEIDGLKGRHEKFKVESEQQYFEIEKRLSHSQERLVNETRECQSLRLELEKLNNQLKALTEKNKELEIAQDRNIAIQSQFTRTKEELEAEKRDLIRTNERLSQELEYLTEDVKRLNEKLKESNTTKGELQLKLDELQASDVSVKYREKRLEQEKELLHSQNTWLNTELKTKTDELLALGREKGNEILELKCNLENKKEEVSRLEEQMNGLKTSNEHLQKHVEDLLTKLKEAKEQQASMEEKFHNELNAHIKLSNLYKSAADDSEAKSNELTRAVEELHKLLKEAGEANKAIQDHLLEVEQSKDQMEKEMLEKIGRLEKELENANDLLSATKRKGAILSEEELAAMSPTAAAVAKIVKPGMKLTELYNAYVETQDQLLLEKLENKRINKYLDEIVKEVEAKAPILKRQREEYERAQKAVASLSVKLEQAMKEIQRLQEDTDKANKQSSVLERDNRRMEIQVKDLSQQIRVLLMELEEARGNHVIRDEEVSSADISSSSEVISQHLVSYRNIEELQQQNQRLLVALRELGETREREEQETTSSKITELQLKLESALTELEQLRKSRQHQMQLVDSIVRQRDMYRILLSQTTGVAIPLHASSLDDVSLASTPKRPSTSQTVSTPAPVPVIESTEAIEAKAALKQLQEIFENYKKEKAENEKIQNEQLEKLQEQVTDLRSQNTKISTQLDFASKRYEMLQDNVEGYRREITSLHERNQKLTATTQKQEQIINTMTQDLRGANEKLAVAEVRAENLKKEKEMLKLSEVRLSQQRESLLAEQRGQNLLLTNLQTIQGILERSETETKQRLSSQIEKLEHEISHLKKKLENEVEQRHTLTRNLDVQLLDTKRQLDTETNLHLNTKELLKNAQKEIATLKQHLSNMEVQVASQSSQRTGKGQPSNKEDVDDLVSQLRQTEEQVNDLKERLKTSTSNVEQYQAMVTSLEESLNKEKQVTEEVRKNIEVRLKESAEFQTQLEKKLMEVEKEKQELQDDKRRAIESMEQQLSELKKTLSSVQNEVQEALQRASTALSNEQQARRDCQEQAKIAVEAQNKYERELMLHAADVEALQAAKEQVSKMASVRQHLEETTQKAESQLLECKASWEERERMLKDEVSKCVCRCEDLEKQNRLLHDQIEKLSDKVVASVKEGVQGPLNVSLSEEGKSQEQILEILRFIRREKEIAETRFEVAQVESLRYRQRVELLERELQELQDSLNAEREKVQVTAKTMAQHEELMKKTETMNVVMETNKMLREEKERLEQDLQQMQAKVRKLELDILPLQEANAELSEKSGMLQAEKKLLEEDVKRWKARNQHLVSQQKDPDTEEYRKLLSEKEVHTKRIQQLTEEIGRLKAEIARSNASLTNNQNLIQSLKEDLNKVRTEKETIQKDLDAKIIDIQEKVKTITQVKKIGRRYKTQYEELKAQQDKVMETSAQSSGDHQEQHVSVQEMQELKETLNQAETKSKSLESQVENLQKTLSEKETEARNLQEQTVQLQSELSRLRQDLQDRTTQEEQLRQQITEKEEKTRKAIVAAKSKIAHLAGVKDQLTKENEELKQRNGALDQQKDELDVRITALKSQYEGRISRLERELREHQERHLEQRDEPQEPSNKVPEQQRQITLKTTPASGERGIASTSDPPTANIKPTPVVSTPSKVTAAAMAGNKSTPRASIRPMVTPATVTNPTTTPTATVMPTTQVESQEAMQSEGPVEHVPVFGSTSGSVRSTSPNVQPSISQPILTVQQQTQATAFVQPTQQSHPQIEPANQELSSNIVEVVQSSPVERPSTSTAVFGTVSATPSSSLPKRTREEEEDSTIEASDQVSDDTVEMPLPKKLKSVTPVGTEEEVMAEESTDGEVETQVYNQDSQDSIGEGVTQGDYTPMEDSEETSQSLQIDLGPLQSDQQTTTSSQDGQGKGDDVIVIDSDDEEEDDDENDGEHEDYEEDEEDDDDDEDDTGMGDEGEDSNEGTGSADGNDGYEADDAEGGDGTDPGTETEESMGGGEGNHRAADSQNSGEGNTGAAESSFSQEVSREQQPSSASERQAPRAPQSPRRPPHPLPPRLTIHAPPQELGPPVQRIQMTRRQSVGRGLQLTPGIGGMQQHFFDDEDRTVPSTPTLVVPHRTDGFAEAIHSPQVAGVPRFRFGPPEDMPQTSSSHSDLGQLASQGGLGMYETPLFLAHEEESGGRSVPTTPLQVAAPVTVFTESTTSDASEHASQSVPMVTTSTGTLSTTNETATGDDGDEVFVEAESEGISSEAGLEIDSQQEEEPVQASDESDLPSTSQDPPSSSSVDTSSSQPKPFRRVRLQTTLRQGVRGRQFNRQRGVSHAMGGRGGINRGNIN
# UniProt Q6P589: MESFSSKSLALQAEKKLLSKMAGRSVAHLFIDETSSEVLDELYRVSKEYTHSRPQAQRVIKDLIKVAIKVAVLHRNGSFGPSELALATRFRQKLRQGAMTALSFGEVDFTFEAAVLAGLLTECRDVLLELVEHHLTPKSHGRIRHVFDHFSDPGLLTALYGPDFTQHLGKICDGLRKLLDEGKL
# The other results are listed elsewhere or left out.
# Compound: COc1ccc(Cn2ccc3ccc(C(=O)NO)cc32)cc1
# Assay: dose-dependent thermal stabilisation call (2D-TPP, DLPTP, 10% FDR) (binary (1 = stabilised)); higher = stabilised by the compound
# Conditions: system: HL-60 intact cells; concentration range 0.04-10 µM
row,Target,dose-dependent thermal stabilisation call
1,TGS1 (UniProt Q96RS0),inactive: 0
2,TMCO3 (UniProt Q6UWJ1),inactive: 0
3,TPD52 (UniProt P55327),active: 1
4,TMEM69 (UniProt Q5SWH9),inactive: 0
5,TFR2 (UniProt Q9UP52),inactive: 0
6,TCP1 (UniProt P17987),inactive: 0
7,TGFBR1 (UniProt P36897),inactive: 0
8,TMEM93 (UniProt Q9BV81),inactive: 0
9,TOMM34 (UniProt Q15785),inactive: 0
10,TMSL3,inactive: 0
11,TCP10L (UniProt Q8TDR4),inactive: 0
12,TOP2A (UniProt P11388),inactive: 0
13,TCIRG1 (UniProt Q13488),inactive: 0
14,TBC1D15 (UniProt Q8TC07),inactive: 0
15,TMEM65 (UniProt Q6PI78),inactive: 0
16,TMEM55B (UniProt Q86T03),inactive: 0
17,TNIP1 (UniProt Q15025),inactive: 0
18,TAGLN2 (UniProt P37802),inactive: 0
19,TOR2A,inactive: 0

row,Target,dose-dependent thermal stabilisation call
1,TMEM184C (UniProt Q9NVA4),inactive: 0
2,TOMM5 (UniProt Q8N4H5),inactive: 0
3,TMEM68 (UniProt Q96MH6),inactive: 0
4,TMEM62 (UniProt Q0P6H9),inactive: 0
5,TIMM13 (UniProt Q9Y5L4),inactive: 0
6,TATDN1 (UniProt Q6P1N9),inactive: 0
7,TMEM219 (UniProt Q86XT9),inactive: 0
8,TAX1BP1 (UniProt Q86VP1),inactive: 0
9,TM9SF3 (UniProt Q9HD45),inactive: 0
10,TBK1 (UniProt Q9UHD2),active: 1
11,TANK (UniProt Q92844),inactive: 0
12,TAOK2 (UniProt Q9UL54),inactive: 0
13,TPR (UniProt P12270),inactive: 0
14,THOC4 (UniProt Q86V81),inactive: 0
15,TINP1 (UniProt O95478),inactive: 0
16,TCEA1 (UniProt P23193),inactive: 0
17,TMED4 (UniProt Q7Z7H5),inactive: 0
18,TNFAIP8L2 (UniProt Q6P589),inactive: 0

# Reformatted: entries from further up
row	Target	dose-dependent thermal stabilisation call
3	TPD52 (UniProt P55327)	active: 1
7	TGFBR1 (UniProt P36897)	inactive: 0
8	TMEM93 (UniProt Q9BV81)	inactive: 0
16	TMEM55B (UniProt Q86T03)	inactive: 0
19	TOR2A	inactive: 0
5	TIMM13 (UniProt Q9Y5L4)	inactive: 0
8	TAX1BP1 (UniProt Q86VP1)	inactive: 0
15	TINP1 (UniProt O95478)	inactive: 0
